Measured values: paper PMC9565047
These are yes or no findings as the source states them, for the method shown. Binding can be weak; no strength is given.

Amino acid sequences for entries named in this document (tags omitted). A change or cut given only in a name is not applied to a line headed by its entry.
UniProt B4YB07: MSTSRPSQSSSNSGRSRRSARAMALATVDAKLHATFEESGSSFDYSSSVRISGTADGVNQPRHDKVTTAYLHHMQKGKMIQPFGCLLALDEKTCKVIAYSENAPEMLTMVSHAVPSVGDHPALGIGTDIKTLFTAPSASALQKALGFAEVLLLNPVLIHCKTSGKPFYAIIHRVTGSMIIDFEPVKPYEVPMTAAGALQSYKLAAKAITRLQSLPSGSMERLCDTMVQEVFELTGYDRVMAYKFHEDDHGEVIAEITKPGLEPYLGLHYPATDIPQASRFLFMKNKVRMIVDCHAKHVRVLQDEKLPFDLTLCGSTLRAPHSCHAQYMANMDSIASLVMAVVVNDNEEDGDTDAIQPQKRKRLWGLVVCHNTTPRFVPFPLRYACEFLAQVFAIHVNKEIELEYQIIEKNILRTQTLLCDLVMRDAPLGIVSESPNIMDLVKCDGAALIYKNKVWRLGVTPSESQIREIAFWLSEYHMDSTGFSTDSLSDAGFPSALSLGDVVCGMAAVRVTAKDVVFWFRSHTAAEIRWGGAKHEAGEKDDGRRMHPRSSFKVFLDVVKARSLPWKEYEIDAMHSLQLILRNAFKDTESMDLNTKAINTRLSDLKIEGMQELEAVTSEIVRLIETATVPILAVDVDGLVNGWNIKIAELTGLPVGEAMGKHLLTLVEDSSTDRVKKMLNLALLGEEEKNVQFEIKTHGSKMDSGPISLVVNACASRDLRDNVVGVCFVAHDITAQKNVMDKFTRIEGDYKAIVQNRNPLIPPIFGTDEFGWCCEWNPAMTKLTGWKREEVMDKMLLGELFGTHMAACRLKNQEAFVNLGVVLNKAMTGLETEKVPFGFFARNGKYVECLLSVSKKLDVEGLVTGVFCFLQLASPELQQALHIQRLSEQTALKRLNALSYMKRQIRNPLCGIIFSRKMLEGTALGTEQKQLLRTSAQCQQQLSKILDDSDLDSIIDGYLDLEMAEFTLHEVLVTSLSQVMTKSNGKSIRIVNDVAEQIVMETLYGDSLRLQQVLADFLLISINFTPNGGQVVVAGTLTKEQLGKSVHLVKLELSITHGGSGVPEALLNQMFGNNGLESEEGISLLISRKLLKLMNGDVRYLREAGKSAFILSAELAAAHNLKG

Experiments:
[1] = target: phyA2 (full length, yeast two-hybrid fusion) (soybean (Glycine max)) (UniProt B4YB07); experiment: two-hybrid; GAL4 yeast two-hybrid (Clontech); growth on SD/-Leu-Trp, selection on SD/-His-Leu-Trp or SD/-His-Leu-Trp-Ade with 3-amino-1,2,4-triazole
[2] = target: phyA3 (full length, yeast two-hybrid fusion) (soybean (Glycine max)) (UniProt C1PHB8); experiment: as above

For “E1lb (yeast two-hybrid fusion) (from UniProt K7MS71)”, the binding [1] was “binds” and the binding [2] was “binds”.
